From patent publication US9580471 (dated 2017)

Test: general procedure: hybrid (solid and solution phase) peptide synthesis; 2-chlorotrityl chloride resin (1% DVB, 0.3-1.2 mmol/g); HBTU/6-Cl-HOBt/DIEA (fragment condensation in solution)
Settings: purification step, acetate (counter-ion exchange with ammonium acetate/AcOH)

For “Asn^1-Asp^2-Glu^3-Cys^4-Glu^5-Leu^6-Cys^7-Val^8-Asn^9-Val^10-Ala^11-Cys^12-Thr^13-Gly^14-Cys^15-Leu^16”, the step yield was 93%, the step yield (run 1) was 86.0% and the step yield (run 2) was 74%. The “final HPLC purity” value (analytical RP-HPLC, 215 nm, run 1) was 97.2%.
